These are yes or no findings as the source states them, for the method shown. Binding calls can cover weak binding; strength is not graded here.

Sequences of proteins named here, by UniProt entry; tags and fusion partners are left off. A change or cut given only in a name is not applied to a line headed by its entry.
UniProt Q6DKI7: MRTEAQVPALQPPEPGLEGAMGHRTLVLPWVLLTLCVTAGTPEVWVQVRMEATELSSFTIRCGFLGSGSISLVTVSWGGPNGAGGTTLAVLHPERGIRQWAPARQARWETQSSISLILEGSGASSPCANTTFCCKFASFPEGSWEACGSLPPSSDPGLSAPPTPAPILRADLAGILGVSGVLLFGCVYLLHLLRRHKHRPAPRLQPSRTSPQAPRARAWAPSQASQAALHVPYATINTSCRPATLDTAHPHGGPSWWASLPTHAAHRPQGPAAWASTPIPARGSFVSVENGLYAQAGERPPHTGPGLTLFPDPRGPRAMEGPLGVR

Test [1] has as its target human CD112R antigen protein huCD112R-His (Acro Biosysterm, PVG-H52H4) (human) (UniProt Q6DKI7). As to the kind of experiment: ELISA, huCD112R-His coated on plate. In general terms: ELISA stands for enzyme-linked immunosorbent assay.
The target of test [2] is monkey antigen protein (monkey CD112R, Uniprot ID: A0A2K5WVV8) (monkey). As to the kind of experiment: ELISA, monkey antigen protein.

B1: C129 (antibody, human IgG1, kappa, V domains shown)
VH: QVQLQQSGAELMTPGSSVKLSCKATGYTFTDYWIEWVKKRPGHGLEWIGEILPGYISTNYNEKFKDKATFTADTSSNTTYMQLSSLTSEDSAVYYCVLIVTTYYYFMDYWGQGTSVTVSS
VL: QIVLTQSPAIMSASPGEKVTITCSASSSVTYMHWFQQKPGTSPKLWIYSTSNLASGVPVRFSGSGSGTSYSLTISRMEAEDAATYYCQQRSSYPWTFGGGTKLEIKR
Take B1: the binding entry in test [1] is reported as “binds”.

B2: C61 (antibody, human IgG1, kappa, V domains shown)
VH: DVQLQESGPGLVKPSQSLSLTCSVTGYSITSNYYWNWIRQFPGNNLEWMGYISSDGTNNYNPSLRNRISITRDTSKNQFFLKLNSVTTEDTATYYCARGLRYGPWGQGTTLTVSS
VL: QLILTQSSSASFSLGASAKLTCTLSSQHSTYTIEWYQQQPLKAPKYVMEVKNDGSHRTGDGIPDRFSGSSSGADRYLSISNIQPEDEAIYICGVGDINNYIFGGGTKVTVLR
Take B2: in test [1], the binding entry is “binds”.

B3: C45 (antibody, human IgG1, kappa, V domains shown)
VH: QVHLQQSGPDLVKPGVSVKISCKASGYTFTDYYINWVKQRPGQGLEWIGWIFPGSGTTYYNEKFKGKATLTVDKSSSTAYMLLSSLTSEDSAVYFCARDGGLRGPFDYWGQGTTLTVSS
VL: DIQMTQSPSSLSASLGGKVTITCKANQDINKYIAWYQYKPGKGPRLLIHYTSTLQPDIPSRFSGSGSGRDFSFSISNLEPEDIATYYCLQYDYLYTFGGGTKLEIKR
Take B3: the binding result in test [2] and in test [1] was “binds” in each case.

B4: C33 (antibody, human IgG1, kappa, V domains shown)
VH: QVQLQQSGPELVKPGASVKISCKASGYTFTDYYINWVKQRPGQGLEWIGWIFPGSGSTYYNEKFKGKATPTVDKYSSTAYMLLSSLTSEDSAVYFCAREDYFDRGDCWGQGTSVTVSS
VL: QIVLTQSPAIMSASPGEKVTMTCSASSSINYMHWYQQKPGTSPKRWIYDTSKLASGVPARFSGSGSGTSYSLTISSMEAEDAATYYCHQRSSYPFTFGSGTKLEIKR
As for B4, in test [1], the binding entry is given as “binds”.

B5: C55 (antibody, human IgG1, kappa, V domains shown)
VH: EVQLQQSGPELVKPGASVKISCKASGYTFTDYYMSWVKQSHGKSLEWIGDVNPNNGDTSYNQKFKGKATLTVDKSSSTAYMELRSLTSEDSAVYYCAASGLPYVLMDYWGQGTSVTVSS
VL: DIQMTQSPASLSASVGETVTITCRASENINSYLAWYQQKQGKSPQLLVYNTKTLTEDVPSRFSGSGSGTQFSLKINSLQPEDFGSYYCQHHYGTPLTFGGGTKLELKR
In the case of B5, the binding result in test [2] and in test [1] was “binds” each time.

B6: C67 (antibody, human IgG1, kappa, V domains shown)
VH: EAQLQQSGPELVKPGASVKISCKASGYTFTDYYMNWVKQSHGKSLDWIGDINPDNGGSTYNQKFKGKATLTVDKSSSTAYMELRSLTSEDSAVYYCSASGPPYVLLDYWGQGTSVIVSS
VL: DIQMTQSPASLSASVGETVTITCQTSENIYSYLAWYQQKQGKSPQLLVYNTQTLAEGVPSRFSGSRSGAQFSLKINSLQPEDFGSYYCQHHYGVPLTFGAGTKLELKR
For the molecule B6, the binding entry in test [2] and in test [1] was “binds” each time.

B7: C56-2 (antibody, human IgG1, kappa, V domains shown)
VH: EVQLVESGGGLVKPGGSLKLSCAASGFTFSDYALSWVRQTPEKRLEWVATIRDGGSYTYYSDNEKGRFTISRDNAKNNLYLQMSHLRSEDTAMYYCTRDQVNRGWFTYWGQGTLVTVSA
VL: QVILTQSPAIMSASLGERVTMTCSASSSVSSSYFHWFQQKPGSSPKLWIYSTSNLASGVPPRFSGSGSGTSYSLTISSMEAEDAATYYCHQHHRSPLTFGAGTKLELKR
As to B7, the binding result in test [2] and in test [1] was “binds” in each case.

B8: C59 (antibody, human IgG1, kappa, V domains shown)
VH: EVQLVESGGGLVKPGGSLKLSCAASGFTFSGYALSWVRQTPEKRLEWVATIRDGGSYTYYSDNEKGRFTISRDNAKNNLYLQMSHLKSEDTAMYYCTRDQVNRGWFTYWGQGTLVTVSA
VL: QVILTQSPAIMSASLGERVTMTCSASSSVSSSYFHWFQQKPGSSPKLWIYSTSNLASGVPPRFSGSGSGTSYSLTISSMEAEDAATYYCHQHHRSPLTFGAGTKLELKR
Turning to B8, the binding entry in test [2] and in test [1] was “binds” in each case.

B9: C57 (antibody, human IgG1, kappa, V domains shown)
VH: EVQLQQSGPVLVKPGASVKMSCKASGYIFTDYYMHWVKQSHGKSLEWIGIINPYNGDTSYNQKFKDKATLTVDKSSSTAYMELNSLTSEDSAVYYCARDSSNVGNAMDYWGQGTSVTVSS
VL: DIQMTQTTSSLSASLGDRVTISCRASQDISNYLNWYLQKPDGTIKLLIYYSSRLHSGVPSRFSGSGSGTDYSLTISNLEQEDIATYFCQQGYTLPRTFGGGTKLEIIR
Take B9: the binding entry in test [2] and in test [1] was “binds” in each case.

B10: C69 (antibody, human IgG1, kappa, V domains shown)
VH: EVQLQQSGPVLVKPGASVKMSCKASGYRLTDYYMHWVKQSHGKSLEWIGIINPYNGGTSYNQKFKGKATLTVDKSSSTAYMELNSLTSDDSAVYYCARDSSNVGNDMDYWGQGTSVSVSS
VL: DIQMTQTTSSLSASLGDRVTISCRASQDISNYLNWYLQKPDGTVKLLIYYSSRLHSGVPSRFSGSGSGTDYSLTINNLEQEDIATYFCQQGNTLPRTFGGGTKLEIRR
B10: the binding entry in test [2] and in test [1] was “binds” each time.

B11: C62 (antibody, human IgG1, kappa, V domains shown)
VH: EVMLVESGGGLVKPGGSLKLSCAASGFSFSSYSMSWVRQTPEKRLECVATIGGVGGNTYYPDSVKGRFSISRDNAKNTLYLQMSSLRSEDTALYYCARHEDYYYYAMDYWGQGTSVTVSS
VL: QIVLTQSPAIMSASPGEKVTMTCSANSTVSYIYWYQQKPGSSPRLLIYDTSNLASGVPVRFSGSGSGTSYYLTISRMEAEDAATYYCQQWSSFPFTFGSGTKLEIKR
Take B11: the binding result in test [2] and in test [1] was “binds” each time.

B12: C71 (antibody, human IgG1, kappa, V domains shown)
VH: EVILVESGGGLVKPGGSRKLSCAASGFTFSSYFMSWVRQTPEKRLEWVATISGGGDNTYYPDSVKGRFTISRDNAKNTLYLQMSSLRSEDTALYYCARHEDYEWYAMDYWGQGTSVTVSS
VL: QIVLTQSPAIMSTSPGEKVTMTCSASSSVSYIYWYQQKPGSSPRLLIYDTSNLASGVPVRFSGSGSGTSYSLTISRMEAEDAATYYCQQWTSYPLTFGAGTKLELKR
B12: the binding entry in test [2] and in test [1] was “binds” in each case.

B13: C63 (antibody, human IgG1, kappa, V domains shown)
VH: EVMLVESGGGLVKPGGSLKLSCAASGFIFSSYIMSWVRQTPEKRLEWVATIRGGGGNTYYLDSVKGRFIISRDNAKNNLYLQMSSLRSEDTALYYCARHEDYEWYAMDNWGQGTSVTVSS
VL: QIVLTQSPAIMSASPGEKVTLTCSARSSVSYMYWYQQKPGSSPKLLIYDTSNLASGVPVRFSGSGSGTSYSLTISRMEAEDAATYYCQQWSSYPLTFGAGTKLELKR
For B13, the binding result in test [2] and in test [1] was “binds” in each case.

B14: C64 (antibody, human IgG1, kappa, V domains shown)
VH: EVMLVESGGDLVKPGGSLKLSCAASGFTFSSYFMSWVRQTPEKRLEWVATISGGGDKTYYLDILKGRFTISRDNAKNTLYLQMSSLRSEDTALYYCARHEDYAWYAMDYWGQGTSVTVSS
VL: QIVLTQSPAIMSASPGEKVTMTCSASSSVNYIYWYQQKPGSSPRLLIYDTSNLASGVPVRFSGSGSGTSYSLTISRMEAEDAATYYCQQWSSYPLTFGAGTKLELKR
Take B14: the binding result in test [2] and in test [1] was “binds” in each case.

B15: C51 (antibody, human IgG1, kappa, V domains shown)
VH: QVQLQQSGAELVRPGASVTLSCKASGYTFTDYEMHWVKQTPVHGLEWIGAIDPETGGTAYNQKFKGKAILTADKSSSTAYMELRSLTSEDSAVYYCTRWITTVVATLYYFDYWGQGTTLTVSS
VL: DIVMTQSQKFMSTSVGDRVSITCKASQNVRTAVAWYQQKPGQSPKALIYLASNRHTGVPDRFTGSGSGTDFTLTISNVQSEDLADYFCLQHWNYPLTFGAGTKLELKR
Turning to B15, the binding entry in test [2] and in test [1] was “binds” in each case.

B16: C113 (antibody, human IgG1, kappa, V domains shown)
VH: EVQLQQSGPELVKPGSSVKISCKASGYTFTDYNLDWMKQSHGSSLEWIGAMSPNNGATSYNQKFKGKATLTVDKSSSTAYMELRSLTSEDSAVYYCARWDSNSWYFDVWGTGTTVTVSS
VL: DIVMTQSQKFMSTSVGDRVSITCKASQIVRTAVDWYQQKSGQSPKALIYSASTRHTGVPDRFTGSGSGTDFTLTIDNVQSEDLAEYFCLQHWNYPYTFGGGTKLEIKR
Take B16: the binding result in test [2] and in test [1] was “binds” in each case.

B17: C101 (antibody, human IgG1, kappa, V domains shown)
VH: EVQLQQSGPELVKPGSSVKISCEASGFTFADYNVDWVKQSHGKSLEWIGAINPNDGGTSYNQKFEGKATLTVDKSSTTAYMELRSLTSEDSAVYYCARWVNNDWYFDVWGTGTTVTVSS
VL: DIVMTQSQKFMSTSVGDRVSITCKASQNVRSAVDWYQQKPGQSPKTLIHSASNRHTGVPDRFTGSGSGTDFTLTISNIQSEDLADYFCLQHWNYPYTFGGGTKLEVKR
For B17, the binding entry in test [2] and in test [1] was “binds” each time.

B18: C105 (antibody, human IgG1, kappa, V domains shown)
VH: EVQLQQSGPELVKPGSSMKISCKASGYTFTDYSMDWVKQSHGKSLEWIGAINPNNGGTSYNQKFKDKATLTVDRSSSTAYMELRSLTSEDSAVYYCARWDSDYWYFDVWATGTTVTVSS
VL: DIVMTQSQKFMSTSVGDRVSITCKASQNVRTAVDWYQQKPGQSPKALIYSASNRHTGVPDRFTGSGSGTDFTLTISNVQSEDLADYFCLQHWNYPYTFGGGTKLEIKR
Regarding B18, the binding entry in test [2] and in test [1] was “binds” in each case.

B19: C111 (antibody, human IgG1, kappa, V domains shown)
VH: QVQLQQSGPELARPGASVKLSCKASGYTLTSHGISWVKQRTGQGLEWIGEIYPGSESPYYSEKFKGKATLTADKSSNIAYMQLSSLTSEDSAVYFCARSDYSDYWAMDYWGQGTSVTVSS
VL: DIVMTQSQKCMSTSVGDRVSITCKASQNVRSAVAWYQQKPGQSPKTLIYLASNRHTGVPDRFTGSGSGTDFTLTITNVQSEDLADYFCLQHWNYPWTFGGGTELEIKR
Consider B19, for which the binding entry in test [2] and in test [1] was “binds” in each case.
